Taken from: PubChem BioAssay AID1224830 (NIAID, 2016)
Here is one part, drawn at random, of about 18,000 reagents. About 2,900 of all reagents (16%) were called active. 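Calls are made per well; low scores hint the gene aids the LPS response, high scores that it dampens it.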 Unmarked entries are inactive. Repeated entries: four replicate wells of each siRNA pool.

- Test: 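Host factors that control LPS-induced TNF expression in human macrophages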 (primary screen)
- Cell system: human THP-1 monocytic leukaemia cells, TNF dual-luciferase reporter clone, PMA-differentiated to macrophage-like cells
- Reagents: siRNA pool against human genes, 50 nM
- Timing: LPS for 4 h, given about 3 days after siRNA transfection
- Treatment: bacterial LPS (TLR4 ligand), 10 ng/ml
- Measurement: 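TNF firefly reporter luminescence divided by renilla, normalised to the plate median, then turned into a robust z-score for each replicate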
- Reading the numbers: TNF reporter robust z-score: higher = stronger TNF reporter response to LPS
- Active means: 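Each well counts as active if its z-score is over 2.8 or under -1.5; controls are left without a call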

no.	Target gene	TNF reporter robust z-score
1	OR56A4	-0.37
2	OR56A4	-0.81
3	OR56A4	-0.3
4	OR56A4	-0.55
5	PRSS35	-0.93
6	PRSS35	-0.35
7	PRSS35	-0.67
8	PRSS35	-0.77
9	PCDHGA12	0
10	PCDHGA12	-0.48
11	PCDHGA12	-0.59
12	PCDHGA12	2.31
13	LAMP5	-0.67
14	LAMP5	-0.37
15	LAMP5	-0.3
16	LAMP5	-0.41
17	PKNOX2	1.87
18	PKNOX2	2.41
19	PKNOX2	1.22
20	PKNOX2	1.6
21	SPG7	0.48
22	SPG7	-0.22
23	SPG7	0.29
24	SPG7	-0.42
25	ZNF816	2.56
26	ZNF816	1.39
27	ZNF816	1.07
28	ZNF816	1.09
29	ZNF395	-0.76
30	ZNF395	-0.71
31	ZNF395	-0.62
32	ZNF395	-0.36
33	RS1	-0.64
34	RS1	-0.27
35	RS1	-0.45
36	RS1	-0.59
37	CYYR1	1.32
38	CYYR1	0.37
39	CYYR1	0.38
40	CYYR1	1.53
41	AKT2	-0.24
42	AKT2	-0.72
43	AKT2	-0.61
44	AKT2	0.35
45	ZNF549	0.52
46	ZNF549	-0.34
47	ZNF549	-0.65
48	ZNF549	0.37

7 successive reagents from above:
no.	Target gene	TNF reporter robust z-score
4	OR56A4	-0.55
5	PRSS35	-0.93
6	PRSS35	-0.35
7	PRSS35	-0.67
8	PRSS35	-0.77
9	PCDHGA12	0
10	PCDHGA12	-0.48
